Values are relative to the signal before dosing, not to a vehicle control; the signal also falls without drug.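 Fibroblast labels denote human fibroblasts, mainly primary ones from uterus (C12385, HUF), lung (H6013), bone (Hs27A), adrenal (HADF) and skin (WS1), plus mammary HMF and breast cancer-associated Hs343T. Cancer cells are basal-like or mesenchymal-like triple-negative breast cancer lines. A hit is a response shift exceeding 3x replicate standard deviation. The tissue of the other fibroblasts is not given here.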
Tested on: BT20
Test: relative JC-1 red fluorescence (viability) vs pre-drug, coculture with fibroblast (fraction); higher = more viable cancer cells
Procedure: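 JC-1 labelled TNBC cells cocultured 1:1 (1,500 cells each) with CellTrace Violet stained primary or stromal fibroblasts in 384-well plates in FluoroBrite medium, treated with one of 42 anticancer drugs at 0.1, 1, 10 or 100 uM. JC-1 red fluorescence (mitochondrial integrity in cancer cells only) was read by plate reader every 8 h for 72 h. Values are normalised to each well's pre-drug value. The stock of one drug was tenfold lower, so its dose labels may be too high.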

C#Cc1cccc(Nc2ncnc3cc(OCCOC)c(OCCOC)cc23)c1 [Erlotinib]
relative JC-1 red fluorescence
Conditions | 8 h | 16 h | 24 h | 32 h | 40 h | 48 h | 56 h | 64 h | 72 h
10 µM, coculture fibroblast: C12385 | 0.907 | 0.835 | 0.777 | 0.715 | 0.667 | 0.6296 | 0.6077 | 0.587 | 0.5711
10 µM, coculture fibroblast: H6013 | 0.95 | 0.904 | 0.878 | 0.86 | 0.844 | 0.837 | 0.837 | 0.817 | 0.807
10 µM, coculture fibroblast: H6019 | 0.862 | 0.8 | 0.787 | 0.747 | 0.732 | 0.724 | 0.722 | 0.719 | 0.711
10 µM, coculture fibroblast: H6076 | 0.874 | 0.904 | 0.896 | 0.871 | 0.832 | 0.7951 | 0.777 | 0.781 | 0.769
10 µM, coculture fibroblast: H6231 | 0.72 | 0.9666 | 0.855 | 0.792 | 0.748 | 0.702 | 0.67 | 0.637 | 0.607
10 µM, coculture fibroblast: HADF | 0.786 | 0.9625 | 0.907 | 0.916 | 0.903 | 0.876 | 0.872 | 0.863 | 0.834
10 µM, coculture fibroblast: HCFa | 0.95 | 0.93 | 0.914 | 0.898 | 0.893 | 0.898 | 0.883 | 0.88 | 0.866
10 µM, coculture fibroblast: HCPF | 0.758 | 0.9425 | 0.8542 | 0.815 | 0.742 | 0.702 | 0.656 | 0.627 | 0.587
10 µM, coculture fibroblast: HHSteC | 0.926 | 0.892 | 0.888 | 0.837 | 0.815 | 0.803 | 0.774 | 0.761 | 0.751
10 µM, coculture fibroblast: HMF | 0.86 | 0.931 | 0.8311 | 0.7713 | 0.726 | 0.687 | 0.6543 | 0.6242 | 0.59297
10 µM, coculture fibroblast: HPFa | 0.953 | 0.88 | 0.873 | 0.808 | 0.781 | 0.75 | 0.724 | 0.688 | 0.646
10 µM, coculture fibroblast: HUF | 0.915 | 0.864 | 0.829 | 0.757 | 0.703 | 0.661 | 0.635 | 0.615 | 0.593
10 µM, coculture fibroblast: Hs5 | 0.848 | 0.934 | 0.856 | 0.806 | 0.763 | 0.726 | 0.689 | 0.656 | 0.636
10 µM, coculture fibroblast: Hs27A | 0.866 | 0.754 | 0.82 | 0.84 | 0.881 | 0.794 | 0.838 | 0.7732 | 0.784
10 µM, coculture fibroblast: Hs343T | 0.853 | 0.931 | 0.811 | 0.759 | 0.713 | 0.666 | 0.615 | 0.601 | 0.565
10 µM, coculture fibroblast: WS1 | 0.8675 | 0.8145 | 0.835 | 0.823 | 0.8272 | 0.8351 | 0.854 | 0.865 | 0.888
100 µM, coculture fibroblast: C12385 | 0.899 | 0.847 | 0.823 | 0.776 | 0.738 | 0.727 | 0.708 | 0.699 | 0.692
100 µM, coculture fibroblast: H6013 | 0.965 | 0.789 | 0.903 | 0.712 | 0.839 | 0.735 | 0.903 | 0.764 | 0.874
100 µM, coculture fibroblast: H6019 | 0.912 | 0.862 | 0.84 | 0.781 | 0.749 | 0.735 | 0.706 | 0.689 | 0.675
100 µM, coculture fibroblast: H6076 | 0.754 | 0.9645 | 0.895 | 0.863 | 0.844 | 0.828 | 0.837 | 0.834 | 0.824
100 µM, coculture fibroblast: H6231 | 0.979 | 0.8895 | 0.818 | 0.764 | 0.731 | 0.703 | 0.689 | 0.675 | 0.652
100 µM, coculture fibroblast: HADF | 0.905 | 0.872 | 0.975 | 0.92 | 0.838 | 0.919 | 0.823 | 0.845 | 0.819
100 µM, coculture fibroblast: HCFa | 0.855 | 0.863 | 0.893 | 0.929 | 0.882 | 0.843 | 0.831 | 0.909 | 0.829
100 µM, coculture fibroblast: HCPF | 0.912 | 0.917 | 0.846 | 0.805 | 0.768 | 0.731 | 0.699 | 0.686 | 0.666
100 µM, coculture fibroblast: HHSteC | 0.9926 | 0.862 | 0.858 | 0.857 | 0.837 | 0.905 | 0.8876 | 0.886 | 0.819
100 µM, coculture fibroblast: HMF | 0.808 | 0.925 | 0.8114 | 0.749 | 0.7146 | 0.6599 | 0.601 | 0.578 | 0.546
100 µM, coculture fibroblast: HPFa | 0.9464 | 0.907 | 0.893 | 0.848 | 0.844 | 0.825 | 0.818 | 0.81 | 0.779
100 µM, coculture fibroblast: HUF | 0.808 | 0.79 | 0.813 | 0.741 | 0.833 | 0.791 | 0.767 | 0.755 | 0.752
100 µM, coculture fibroblast: Hs5 | 0.803 | 0.929 | 0.858 | 0.81 | 0.779 | 0.741 | 0.708 | 0.688 | 0.672
100 µM, coculture fibroblast: Hs27A | 0.815 | 0.84 | 0.823 | 0.752 | 0.835 | 0.8 | 0.861 | 0.832 | 0.7845
100 µM, coculture fibroblast: Hs343T | 0.764 | 0.922 | 0.821 | 0.782 | 0.746 | 0.688 | 0.646 | 0.618 | 0.584
100 µM, coculture fibroblast: WS1 | 0.88 | 0.814 | 0.794 | 0.751 | 0.699 | 0.689 | 0.676 | 0.657 | 0.653

From the supplement of paper PMC6078165
